PubChem BioAssay AID1259254 – NCATS – 2017

Screen: 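Genome-wide screen for genes that prevent DNA re-replication in cancer cells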 (primary screen)
Cells: human HCT116 colorectal cancer cells
Reagents: single siRNA against human genes
Time to read-out: 3 days
Measured: 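Nuclei stained with Hoechst and imaged; cell-cycle phase assigned by DNA content; G2 share scaled per plate, non-targeting siRNA 0%, GMNN siRNA 100%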
Reading the numbers: G2 robust z-score and G2 cells, % of GMNN control: higher = more G2 cells, more excess DNA replication
Rule for the call: 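Active siRNAs have a G2 robust z of 5 or more median absolute deviations over the median, which in these data means about 38% or higher of GMNN control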
Here is an unselected part of about 59,000 reagents. Over the whole deposit, about 1,550 (2.6%) got an active call. 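G2 share is only a proxy for re-replication; each gene was hit by three separate siRNAs, and active genes were retested.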 Entries without a mark were called inactive. Reagents against one gene are numbered here. Further read-outs or replicates are left out here. The record does not give: the amount of reagent.

KLK7 #1 | G2 robust z-score = -1.28; G2 cells, % of GMNN control = -6.06
KLK7 #2 | G2 robust z-score = -0.683; G2 cells, % of GMNN control = -1.84
KLK7 #3 | G2 robust z-score = -0.275; G2 cells, % of GMNN control = 1.03
EPB41L4A #1 | G2 robust z-score = -0.92; G2 cells, % of GMNN control = -3.51
EPB41L4A #2 | G2 robust z-score = 0.0863; G2 cells, % of GMNN control = 3.57
EPB41L4A #3 | G2 robust z-score = -0.52; G2 cells, % of GMNN control = -0.688

The list goes on (2 carried over from the part before).
EPB41L4A #2 | G2 robust z-score = 0.0863; G2 cells, % of GMNN control = 3.57
EPB41L4A #3 | G2 robust z-score = -0.52; G2 cells, % of GMNN control = -0.688
NDUFB10 #1 | G2 robust z-score = 1.31; G2 cells, % of GMNN control = 12.2
NDUFB10 #2 | G2 robust z-score = -0.795; G2 cells, % of GMNN control = -2.63
NDUFB10 #3 | G2 robust z-score = -1.22; G2 cells, % of GMNN control = -5.63
BHLHE41 #1 | G2 robust z-score = 1.11; G2 cells, % of GMNN control = 10.8
BHLHE41 #2 | G2 robust z-score = 0.566; G2 cells, % of GMNN control = 6.95
BHLHE41 #3 | G2 robust z-score = 0.731; G2 cells, % of GMNN control = 8.11
